Test results from patent publication US7176237B2, “Tricyclic-bis-enone derivatives and methods of use thereof” (The Trustees of Dartmouth College, priority 2002, dated 2007).
Some of these results come from one statement about several compounds together.

Tested on: MCF-7 breast cancer cells (ER-positive)
Experiment: Inhibition of estrogen-stimulated growth of MCF-7 breast cancer cells
Format: cell-based, human
Conditions: MCF-7 (ER-positive)

CC1(C)C(=O)C(C#N)=C[C@]2(C)C3=CC(=O)C=C[C@]3(C)CC[C@@H]12 (racemic) [(±)-TBE-5]
concentration range of dose-dependent inhibition of estrogen-stimulated growth: 0.3 to 10 µM

CC(=O)O[C@@H]1CC(=O)C=C2[C@@]3(C)C=C(C#N)C(=O)C(C)(C)[C@@H]3CC[C@]21C (racemic) [(±)-TBE-3]
concentration range of dose-dependent inhibition of estrogen-stimulated growth: 0.3 to 10 µM
